Reference: patent publication US10301664B2, “Repurposing non-antimicrobial drugs and clinical molecules to treat bacterial infections” (Purdue Research Foundation, priority 2015, dated 2019)
At least one structure is not confirmed: it was looked up by name or label, or the drawing left a doubt. Some of these results come from one statement about several compounds together.

How the values were obtained:
[1] = system: mitochondrial protein synthesis in J774A.1 cells; assay: Mitochondrial biogenesis in-cell ELISA (COX-I / SDH-A); assay type: cell-based; settings: J774A.1 cells treated for three days
Source text: Due to concern about the possible mitochondrial toxicities associated with many antibacterial protein synthesis inhibitors such as linezolid and chloramphenicol, we tested the effect of Auranofin and Ebselen on mitochondrial protein synthesis directly within the mammalian cells.

[2] = system: MRSA USA200; assay type: in vivo, BALB/c mice; settings: IP, EB 30 mg/kg or FdUrd 25 mg/kg once daily for three days, monitored six days
Procedure: Animal procedures were approved by the Purdue University Animal Care and Use Committee (PACUC) (protocol no. 1311000988). Eight-week-old female BALB/c mice (Harlan Laboratories, Indianapolis, Ind.) were used for this study. Mice were rendered neutropenic by treatment with cyclophosphamide intraperitoneally (IP) 150 and 100 mg/kg at four days and one day before infection, respectively. Neutropenic mice were inoculated IP with 8×10^8 MRSA USA200. At one hour after infection, the mice were divided into five groups (n=10 per group), and two groups were treated orally with either EB 30 mg/kg or FdUrd 25 mg/kg. Two groups were treated IP with either EB 30 mg/kg or FdUrd 25 mg/kg. One group was used as a control with no treatment. Treatment was continued once daily for two more days (animals received three doses total). Mortality was monitored four times daily for six days, and the cumulative percent survival was determined. The data were subjected to statistical analysis using Kaplan-Meier survival curves. A log rank test was performed for 95% confidence intervals by GraphPad Prism 6.0 (GraphPad Software, La Jolla, Calif.).

[3] = system: E. coli cellular extracts (bacterial translation process); assay: Bacterial transcription and translation assay, luciferase readout; assay type: biochemical
Source text: For bacterial protein-synthesis inhibition, E. coli cellular extracts in a transcription and translation assay were used to monitor protein production via luciferase readout.
In this Example, we tested the effects of the two drugs on bacterial, mammalian and mitochondrial protein-synthesis. For bacterial protein-synthesis inhibition, we used E. coli cellular extracts in a transcription and translation assay that monitors protein production via luciferase readout.

[4] = system: S. aureus; assay: Macromolecular synthesis (MMS): incorporation of radioactive precursors; assay type: cell-based; settings: at 1× the MIC; data not shown
Source text: In this Example we examined the effect of Auranofin and Ebselen on incorporation of radioactive precursors into macromolecules in S. aureus.

[5] = system: MRSA USA300-0114 toxins hla and PVL; assay: MRSA toxin production by ELISA; assay type: cell-based, S. aureus; settings: 1 hour incubation

Structure (SMILES): CC(=O)OC[C@H]1O[C@@H]([S-])[C@H](OC(C)=O)[C@@H](OC(C)=O)[C@@H]1OC(C)=O.CCP(CC)CC.[Au+] [Auranofin]
- inhibition of mitobiogenesis [1]: less than 10%

Structure (SMILES): O=c1c2ccccc2[se]n1-c1ccccc1 [Ebselen]
- mice survival compared to that of control [2]: but not IP
- IC50 of bacterial translation [3]: 0.25 µg/mL
- DNA synthesis inhibition [4]: primarily inhibited
- protein synthesis inhibition [4]: primarily inhibited
- production of toxin PVL [5]: significantly suppressed toxin production
- production of toxin hla [5]: significantly suppressed toxin production
